Consider 1 molecule from publication PMC12448474.

This experiment deals with T1, human MON1A (residues 98−652) (human) (UniProt Q86VX9).
T1 sequence: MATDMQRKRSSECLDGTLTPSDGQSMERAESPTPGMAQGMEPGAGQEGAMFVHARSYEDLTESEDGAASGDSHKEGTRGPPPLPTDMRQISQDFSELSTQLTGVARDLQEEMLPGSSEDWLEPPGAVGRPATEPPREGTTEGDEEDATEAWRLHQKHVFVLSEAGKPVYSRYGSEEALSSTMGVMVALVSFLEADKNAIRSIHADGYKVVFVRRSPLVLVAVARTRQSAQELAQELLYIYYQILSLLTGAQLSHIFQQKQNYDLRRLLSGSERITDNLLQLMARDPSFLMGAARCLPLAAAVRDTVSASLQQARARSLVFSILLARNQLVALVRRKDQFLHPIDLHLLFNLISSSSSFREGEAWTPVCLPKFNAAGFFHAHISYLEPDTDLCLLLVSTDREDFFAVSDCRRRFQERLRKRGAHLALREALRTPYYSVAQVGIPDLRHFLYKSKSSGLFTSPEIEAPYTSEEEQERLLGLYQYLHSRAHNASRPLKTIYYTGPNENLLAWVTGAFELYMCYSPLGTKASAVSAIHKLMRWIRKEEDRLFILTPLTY
Put plainly: cryo-EM structure; HsMON1A (98−652)−CCZ1−RAB7A^N125I complex co-expressed in Sf9 and purified, tags removed; single-particle reconstruction at 2.85 Å, C1 symmetry; both purified.

These are yes or no findings as the source states them, for the method shown. Some binding calls cover weakened binding; strength is not graded here.

B1: human CCZ1 full length (residues 1−482) (protein, UniProt P86791 1-482)
chain: MAAAAAGAGSGPWAAQEKQFPPALLSFFIYNPRFGPREGQEENKILFYHPNEVEKNEKIRNVGLCEAIVQFTRTFSPSKPAKSLHTQKNRQFFNEPEENFWMVMVVRNPIIEKQSKDGKPVIEYQEEELLDKVYSSVLRQCYSMYKLFNGTFLKAMEDGGVKLLKERLEKFFHRYLQTLHLQSCDLLDIFGGISFFPLDKMTYLKIQSFINRMEESLNIVKYTAFLYNDQLIWSGLEQDDMRILYKYLTTSLFPRHIEPELAGRDSPIRAEMPGNLQHYGRFLTGPLNLNDPDAKCRFPKIFVNTDDTYEELHLIVYKAMSAAVCFMIDASVHPTLDFCRRLDSIVGPQLTVLASDICEQFNINKRMSGSEKEPQFKFIYFNHMNLAEKSTVHMRKTPSVSLTSVHPDLMKILGDINSDFTRVDEDEEIIVKAMSDYWVVGKKSDRRELYVILNQKNANLIEVNEEVKKLCATQFNNIFFLD
For the molecule B1, the binding entry is recorded as “binds”.
